Among the data in article PMC8854732 are binding values, retold here.

The chains behind the UniProt entries cited, without tags or fusion partners.
UniProt Q5UIP0: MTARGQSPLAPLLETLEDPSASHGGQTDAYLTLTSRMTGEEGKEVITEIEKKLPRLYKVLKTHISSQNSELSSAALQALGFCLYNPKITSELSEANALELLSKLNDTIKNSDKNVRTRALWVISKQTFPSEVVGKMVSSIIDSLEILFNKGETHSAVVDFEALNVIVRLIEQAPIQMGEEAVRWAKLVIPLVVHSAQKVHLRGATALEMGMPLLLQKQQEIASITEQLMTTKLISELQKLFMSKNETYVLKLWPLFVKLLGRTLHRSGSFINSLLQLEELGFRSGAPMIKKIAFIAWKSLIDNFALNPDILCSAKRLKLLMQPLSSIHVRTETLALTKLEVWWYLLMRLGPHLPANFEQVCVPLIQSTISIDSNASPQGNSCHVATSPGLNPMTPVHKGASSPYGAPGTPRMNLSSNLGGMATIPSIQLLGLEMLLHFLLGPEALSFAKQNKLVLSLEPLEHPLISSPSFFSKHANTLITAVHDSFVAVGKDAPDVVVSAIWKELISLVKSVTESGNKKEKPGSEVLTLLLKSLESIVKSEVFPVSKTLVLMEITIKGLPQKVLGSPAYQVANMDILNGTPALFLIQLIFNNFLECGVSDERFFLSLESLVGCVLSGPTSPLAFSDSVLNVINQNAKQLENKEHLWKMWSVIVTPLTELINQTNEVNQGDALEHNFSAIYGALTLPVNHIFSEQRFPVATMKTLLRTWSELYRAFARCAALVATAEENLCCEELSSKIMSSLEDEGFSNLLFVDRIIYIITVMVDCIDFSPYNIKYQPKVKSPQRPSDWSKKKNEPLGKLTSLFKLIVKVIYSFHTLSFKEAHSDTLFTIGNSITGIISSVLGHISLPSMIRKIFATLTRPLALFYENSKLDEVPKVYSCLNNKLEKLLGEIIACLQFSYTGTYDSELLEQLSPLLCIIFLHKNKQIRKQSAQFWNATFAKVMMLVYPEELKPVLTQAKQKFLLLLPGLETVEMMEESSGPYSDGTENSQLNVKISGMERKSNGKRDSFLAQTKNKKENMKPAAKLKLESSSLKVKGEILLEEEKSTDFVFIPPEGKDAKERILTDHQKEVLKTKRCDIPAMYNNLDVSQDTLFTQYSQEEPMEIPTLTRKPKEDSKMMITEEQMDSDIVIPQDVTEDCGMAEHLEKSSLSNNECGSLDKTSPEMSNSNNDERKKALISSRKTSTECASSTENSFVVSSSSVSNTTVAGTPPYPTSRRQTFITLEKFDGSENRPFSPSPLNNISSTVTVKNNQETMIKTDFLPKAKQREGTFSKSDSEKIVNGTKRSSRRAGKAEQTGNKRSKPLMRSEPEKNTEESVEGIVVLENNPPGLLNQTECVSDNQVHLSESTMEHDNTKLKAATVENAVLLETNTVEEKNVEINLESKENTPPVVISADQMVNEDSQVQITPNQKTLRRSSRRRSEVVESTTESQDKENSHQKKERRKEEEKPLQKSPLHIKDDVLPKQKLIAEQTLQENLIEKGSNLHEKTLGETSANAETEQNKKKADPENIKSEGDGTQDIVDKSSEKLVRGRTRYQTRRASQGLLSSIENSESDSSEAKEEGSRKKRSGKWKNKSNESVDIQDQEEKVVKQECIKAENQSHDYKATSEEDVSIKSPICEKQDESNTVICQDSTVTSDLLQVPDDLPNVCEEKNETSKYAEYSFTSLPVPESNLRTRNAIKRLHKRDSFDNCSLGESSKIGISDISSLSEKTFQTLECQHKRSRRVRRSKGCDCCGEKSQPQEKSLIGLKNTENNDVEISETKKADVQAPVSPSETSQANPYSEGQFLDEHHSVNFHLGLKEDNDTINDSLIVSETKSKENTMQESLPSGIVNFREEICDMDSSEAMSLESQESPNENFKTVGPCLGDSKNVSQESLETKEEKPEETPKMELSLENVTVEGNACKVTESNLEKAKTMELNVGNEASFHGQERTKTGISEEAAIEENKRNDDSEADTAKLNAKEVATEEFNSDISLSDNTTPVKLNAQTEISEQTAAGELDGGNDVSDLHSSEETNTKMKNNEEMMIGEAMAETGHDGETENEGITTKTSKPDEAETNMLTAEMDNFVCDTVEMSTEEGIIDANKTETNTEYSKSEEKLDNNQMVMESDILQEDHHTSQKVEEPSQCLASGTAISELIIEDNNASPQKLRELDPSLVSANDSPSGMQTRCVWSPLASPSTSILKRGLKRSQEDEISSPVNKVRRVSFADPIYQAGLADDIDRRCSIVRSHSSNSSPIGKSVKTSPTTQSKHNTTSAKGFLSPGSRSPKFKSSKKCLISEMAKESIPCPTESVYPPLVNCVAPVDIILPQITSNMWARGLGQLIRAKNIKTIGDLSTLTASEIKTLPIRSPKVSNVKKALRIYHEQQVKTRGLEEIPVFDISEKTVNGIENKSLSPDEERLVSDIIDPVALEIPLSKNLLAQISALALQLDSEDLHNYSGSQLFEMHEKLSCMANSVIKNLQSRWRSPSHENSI
UniProt Q9Y294: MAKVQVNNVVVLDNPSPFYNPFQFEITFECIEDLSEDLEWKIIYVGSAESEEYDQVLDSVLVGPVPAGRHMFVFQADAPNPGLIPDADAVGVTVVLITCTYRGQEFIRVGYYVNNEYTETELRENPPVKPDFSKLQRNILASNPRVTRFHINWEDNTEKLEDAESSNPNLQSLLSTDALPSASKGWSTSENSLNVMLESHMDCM
UniProt Q9NVP2: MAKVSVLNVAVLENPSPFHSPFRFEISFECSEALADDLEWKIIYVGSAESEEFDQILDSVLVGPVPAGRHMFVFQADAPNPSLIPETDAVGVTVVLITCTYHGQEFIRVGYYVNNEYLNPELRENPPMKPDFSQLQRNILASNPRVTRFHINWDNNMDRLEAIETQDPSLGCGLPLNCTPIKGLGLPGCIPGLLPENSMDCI

Results are given in words; binding and its absence hold for the method and conditions named. Binding seen in cells or lysates may run through a third protein. Here binding means that the protein was enriched with, or labelled near, the bait; the list need not be complete.

Assay in all cases: affinity purification with mass spectrometry; anti-FLAG M2 agarose IP from extracts of HEK293 cells expressing the FLAG-tagged bait, NTEN lysis buffer (150 mM NaCl, 0.5% NP-40), 4 °C 4 h, elution with 3× Flag peptide, mass spectrometry; mock HEK293 cells as control
Assay [1] deals with FLAG-tagged RIF1 (UniProt Q5UIP0).
The target in assay [2] is FLAG-tagged ASF1a (UniProt Q9Y294).
Assay [3] deals with FLAG-tagged ASF1b (UniProt Q9NVP2).

In the case of “ASF1a (endogenous, HEK293) (from UniProt Q9Y294 1-204)”, the binding result in assay [1] is on record as “binds”. With “RIF1 (endogenous, HEK293) (from UniProt Q5UIP0 1-2472)”, the binding entry in assay [2] and in assay [3] was “binds” in each case.
